Paper PMC6372799
No constants are given. Whether binding was seen depends on the method and setting. Binding seen in cells or lysates may run through a third protein. Some binding calls cover weakened binding; strength is not graded here.

Chains of the proteins cited; added tags and fusions are not shown.
UniProt Q9UBF8: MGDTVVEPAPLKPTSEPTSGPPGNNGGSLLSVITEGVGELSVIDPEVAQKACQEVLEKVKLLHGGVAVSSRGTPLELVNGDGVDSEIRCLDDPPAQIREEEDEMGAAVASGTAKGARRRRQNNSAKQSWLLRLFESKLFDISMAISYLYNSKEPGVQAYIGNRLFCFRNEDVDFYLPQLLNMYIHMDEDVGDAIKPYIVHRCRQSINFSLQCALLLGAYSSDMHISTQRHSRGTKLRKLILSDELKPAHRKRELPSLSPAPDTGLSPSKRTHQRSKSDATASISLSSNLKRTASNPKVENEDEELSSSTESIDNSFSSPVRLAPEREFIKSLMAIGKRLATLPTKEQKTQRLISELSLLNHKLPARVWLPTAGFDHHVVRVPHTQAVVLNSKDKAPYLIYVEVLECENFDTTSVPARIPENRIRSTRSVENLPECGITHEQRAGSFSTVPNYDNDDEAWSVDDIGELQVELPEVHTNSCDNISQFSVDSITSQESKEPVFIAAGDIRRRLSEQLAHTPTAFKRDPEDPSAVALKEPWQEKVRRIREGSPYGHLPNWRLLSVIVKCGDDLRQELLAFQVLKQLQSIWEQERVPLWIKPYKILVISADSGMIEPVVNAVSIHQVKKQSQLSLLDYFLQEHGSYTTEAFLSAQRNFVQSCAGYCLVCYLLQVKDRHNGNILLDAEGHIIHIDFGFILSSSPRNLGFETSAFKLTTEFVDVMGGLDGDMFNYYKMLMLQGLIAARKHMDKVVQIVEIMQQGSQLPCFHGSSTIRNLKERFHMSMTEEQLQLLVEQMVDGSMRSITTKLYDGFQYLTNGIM
UniProt Q9H3P7: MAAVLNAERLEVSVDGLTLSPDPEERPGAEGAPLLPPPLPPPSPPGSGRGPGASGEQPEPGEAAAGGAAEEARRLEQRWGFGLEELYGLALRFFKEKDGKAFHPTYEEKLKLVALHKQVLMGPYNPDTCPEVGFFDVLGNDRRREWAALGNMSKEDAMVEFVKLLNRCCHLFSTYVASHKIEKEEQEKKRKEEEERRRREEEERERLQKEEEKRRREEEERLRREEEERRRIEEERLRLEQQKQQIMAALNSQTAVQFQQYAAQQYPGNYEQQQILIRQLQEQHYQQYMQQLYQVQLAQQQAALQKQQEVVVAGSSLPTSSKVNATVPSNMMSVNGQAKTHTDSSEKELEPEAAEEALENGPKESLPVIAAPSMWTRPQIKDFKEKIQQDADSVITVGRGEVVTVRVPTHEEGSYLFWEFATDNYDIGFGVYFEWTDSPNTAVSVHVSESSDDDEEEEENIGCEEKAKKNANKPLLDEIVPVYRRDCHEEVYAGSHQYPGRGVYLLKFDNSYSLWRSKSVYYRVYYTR

Molecular target: phosphatidylinositol 4-kinase IIIβ (PI4KB), wild type (UniProt Q9UBF8)
Assay: co-IP; coimmunoprecipitation from cells (Fig. S7); antibodies, bait, cell line and buffer are in Text S1, not shown

- binding: binds
Substance: acyl-coenzyme A binding domain containing 3 (ACBD3), wild type (from UniProt Q9H3P7 1-528)
